According to PubChem BioAssay AID504467 (National Center for Advancing Translational Sciences (NCATS), 2011):
Among all 330,000 compounds or so, about 7,700 (2.3%) were called active. The shares of active, inactive and inconclusive entries below differ from those in the screen. The call rests on the fitted dose curve; in most records, active means well fitted inhibition curve with a large enough effect; inconclusive means small, poorly fitted or top-dose-only effect, or effect the other way; inactive means flat fitted curve, though single readings scatter. Potencies of inconclusive entries are doubtful fits and often do not repeat.

assay: qHTS screen for small molecules that inhibit ELG1-dependent DNA repair in human embryonic kidney (HEK293T) cells expressing luciferase-tagged ELG1; settings: HEK293T ELG1-luciferase reporter, luminescence, 16 h, DNA damage induced by 5-fluorouridine; series mostly up to 46.1 µM; further: nearly all actives have a fitted effect of over 55% in size
Summary of the method: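 Cells (2,000 per well) received 5-fluorouridine plus test compound or DMSO and were incubated 16 hr at 37 °C, 5% CO2. Luciferase activity was read by luminescence 30 min after ONE-Glo addition; signal suppression marked inhibition of damage-induced ELG1 function.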
Potency means the concentration at half of the fitted maximal effect.

SMILES | Potency
Cc1cccc(C(=O)N/N=C/c2ccc[nH]2)c1 | inconclusive: 23.1 µM [activator, single point]
O=C1CCC(C(=O)OC(C(=O)c2c[nH]c3ccccc23)c2ccccc2)=NN1 (configuration not stated) | inconclusive: 29.1 µM [activator, partial curve, poor fit]
COc1cc(C(=O)O[C@H]2CC(C)=CC[C@@]3(C)CC[C@@](O)(C(C)C)[C@H]23)ccc1O | inactive
Cc1ccc(C)c(C(=O)NC2CC(C)(C)NC(C)(C)C2)c1 | inactive
Cc1ccc(OCC(=O)N/N=C/c2cn(C)c3ccccc23)cc1 | inactive
Cc1ccc(C(=O)/C=C/NNC(=O)c2ccccc2O)cc1 | inactive
O=C(CNC(=S)N(Cc1ccccc1)Cc1ccccc1F)NCc1ccccc1 | inconclusive: 20.6 µM [inhibitor, single point]
COc1ccc(CCNC(=O)CN2C(=O)NC3(CCCCC3C)C2=O)cc1 (configuration not stated) | inactive
COc1ccc(OCc2nnc(SCc3ccc(C(=O)O)cc3)o2)cc1 | inconclusive: 11.6 µM [activator, partial curve, poor fit]
CCc1nn2cc(-c3ccccc3)nc2s1 | inconclusive: 0.651 µM [activator, partial curve]
C/C(N)=C(/C#N)C(=O)CN1C(=O)NC(Cc2c[nH]c3ccccc23)C1=O (configuration not stated) | inactive
CCn1c2ccccc2c2nnc(SCCCn3c(=O)[nH]c4ccccc43)nc21 | active: 23.1 µM
CC(=O)c1ccc(S(=O)(=O)N2CCN(C(=O)CSc3ccc(F)cc3)CC2)cc1 | inactive
CCn1c(SCC(=O)Nc2ccc3c(c2)OCCO3)nnc1-c1cccnc1 | inactive
Cc1cccn2c(=O)c3cc(C(=O)NCc4ccco4)c(=N)n(CCOCCO)c3nc12 | inconclusive: 18.4 µM [inhibitor, single point]
O=C(OCC(=O)N1CCOCC1)c1ccccc1OCc1ccccc1 | inconclusive: 35.5 µM [activator, single point]
O=C(NCCC1CCCCN1S(=O)(=O)c1ccc(F)cc1)C(=O)NCC1CCCO1 (configuration not stated) | inactive
CCCCCn1c(CN2CCCCC2CC)nc2c1c(=O)n(C)c(=O)n2C (configuration not stated) | inconclusive: 16.4 µM [inhibitor, single point]
Cc1ccc2c(c1)c1c(n2CC(O)CN2CCCCCC2)CCCC1 (configuration not stated) | inactive
Cc1nc2ccc(NS(=O)(=O)c3ccc(C)c(C)c3)cc2s1 | inconclusive: 11.6 µM [inhibitor, partial curve]
Cc1ccc(-c2nnc(N(C)C(=O)C3CCCO3)s2)cn1 (configuration not stated) | inconclusive: 10 µM [activator, partial curve, poor fit]
CCCCC(C(=O)NC1CCCC1)N(Cc1ccco1)C(=O)Cn1nnc(-c2ccc(F)cc2)n1 (configuration not stated) | active: 16.4 µM
O=c1cc(N2CCCCC2)c(-c2ccccc2)nn1Cc1cccc(F)c1 | inconclusive: 29.1 µM [inhibitor, partial curve, poor fit]
Cc1c(NC(=O)c2cccc(NC(=O)COc3ccc(C#N)cc3)c2)c(=O)n(-c2ccccc2)n1C | inconclusive: 18.3 µM [inhibitor, single point]

Pulled by structure from the entries so far, five records:
SMILES | Potency
Cc1cccn2c(=O)c3cc(C(=O)NCc4ccco4)c(=N)n(CCOCCO)c3nc12 | inconclusive: 18.4 µM [inhibitor, single point]
Cc1cccc(C(=O)N/N=C/c2ccc[nH]2)c1 | inconclusive: 23.1 µM [activator, single point]
CCn1c(SCC(=O)Nc2ccc3c(c2)OCCO3)nnc1-c1cccnc1 | inactive
CCc1nn2cc(-c3ccccc3)nc2s1 | inconclusive: 0.651 µM [activator, partial curve]
O=c1cc(N2CCCCC2)c(-c2ccccc2)nn1Cc1cccc(F)c1 | inconclusive: 29.1 µM [inhibitor, partial curve, poor fit]

Continuation.

SMILES | Potency
C[C@@H]1CN([C@H](C)CO)C(=O)c2cc(NS(=O)(=O)c3ccc(F)cc3)ccc2O[C@@H]1CN(C)Cc1ccc(Cl)c(Cl)c1 | inconclusive: 20.6 µM [inhibitor, single point]
CC(C)CN(CC(C)C)c1ccc(/C=N/n2cnnc2)cc1[N+](=O)[O-] | inactive
COc1ccc(NC(=O)N2CCNC(=O)C2CC(=O)Nc2ccc(F)cc2)cc1 (configuration not stated) | inactive
OC1CCN(C(=S)Nc2ccc(Oc3ccccc3)cc2)CC1 | inactive
COc1ccc(S(=O)(=O)C(C#N)c2nc3ccccc3nc2N2CCCC(C)C2)cc1 (configuration not stated) | inconclusive: 29.1 µM [inhibitor, single point]
COc1ccccc1CCC(=O)N(C)C1CCCN(Cc2ccccc2F)C1 (configuration not stated) | inactive
Cc1ccsc1/C=N/NC(=O)c1nnn(-c2nonc2N)c1-c1ccccc1 | inconclusive: 23.1 µM [inhibitor, partial curve]
Cc1ccc(S(=O)(=O)N2CCC(C(=O)N3CCC[C@H]3C(=O)NCc3ccco3)CC2)cc1 | inconclusive: 32.6 µM [inhibitor, partial curve, poor fit]
CCOc1cc(/C=C\[N+](=O)[O-])ccc1OCC(=O)Nc1ccccc1C | inconclusive: 20.6 µM [inhibitor, single point]
Cc1ccsc1C(C(=O)NCc1ccccc1)N(C(=O)c1csnn1)c1ccccc1 (configuration not stated) | inactive
c1ccc(CCNc2c3c(nc4ncnn24)CCC3)cc1 | inconclusive: 18.4 µM [inhibitor, single point]
CC(C)OC(=O)CSc1nnc(-c2ccncc2)n1N | inactive
CCC(=O)NN1CCN(c2ccncc2S(=O)(=O)N2CCCCC2)CC1 | inactive
Cc1cccc2cccnc12 | inconclusive: 11.6 µM [activator, partial curve, poor fit]
COc1ccc(CN2C(=O)C(Cc3ccccc3)Nc3ncnc(N4CCc5ccccc5C4)c32)cc1 (configuration not stated) | inconclusive: 29.1 µM [inhibitor, single point]
CS(=O)(=O)c1ccc(C(=O)NC2CCCCC2)cc1 | inconclusive: 18.4 µM [activator, single point]
CCN1CCCC1CNC(=O)c1cn(C)c2ccc(S(=O)(=O)N3CCCCCC3)cc2c1=O (configuration not stated) | inactive
COc1ccc([C@H]2CC(=O)C=C(c3cccc(NC(C)=O)c3)C2)cc1 | inactive
CCCCS(=O)Cc1ccccc1 (configuration not stated) | inactive
Cc1ccc2c(c1)nnn2C1CCN(C(=O)C2CCCCC2)CC1 | inconclusive: 10 µM [inhibitor, partial curve, poor fit]
COc1ccccc1-c1ccc(NC2CCCC2)nn1 | inconclusive: 11.6 µM [activator, partial curve]
CSc1cccc(NC(=O)c2cnn3ccccc23)c1 | inconclusive: 7.3 µM [activator, partial curve]
CCOC(=O)c1sc(-c2cccs2)nc1C | inconclusive: 20.6 µM [activator, partial curve]
Nc1nc2ccc(-c3nc4ccccc4o3)cc2s1 | inconclusive: 2.59 µM [activator, full curve]

SMILES | Potency
CCn1nc(NC(=O)C(C)(C)C)c2cc3cccc(C)c3nc21 | inactive
O=C(COc1ccccc1)OCc1cc(-c2ccco2)on1 | inconclusive: 0.206 µM [activator, full curve]
Cc1oc(C(C)(C)C)cc1C(=O)N1CCN(c2ccc(C(F)(F)F)cn2)CC1 | inconclusive: 32.6 µM [inhibitor, single point]
Cc1[nH]c(C)c(S(=O)(=O)N(Cc2ccccc2)C(C)C)c1C(=O)N1CCCC1 | inactive
O=C1OC(c2ccccc2)/C(=C(/O)c2ccccc2)C1=O (configuration not stated) | inconclusive: 23.1 µM [activator, single point]
Cc1ccc(C(=O)N/C(=C/c2ccco2)C(=O)Nc2cccc(C(=O)O)c2)cc1 | inconclusive: 29.1 µM [activator, single point]
COc1ccc(S(=O)(=O)c2c(O)c3ccc(C(=O)Nc4ccc(F)cc4)cc3[nH]c2=O)cc1 | inactive
CCCCn1c(N)c(N(CCOC)C(=O)CSc2nnc(-c3ccc(F)cc3)n2N)c(=O)[nH]c1=O | inconclusive: 29.1 µM [activator, single point]
COc1ccc(-c2nc(C#N)c(N3CCCCCC3)o2)cc1OC | inconclusive: 23.1 µM [inhibitor, single point]
O=C(c1ccco1)N1CCN(C(=O)c2cc(-c3ccccc3F)no2)CC1 | inconclusive: 23.1 µM [activator, partial curve]
Cc1sc(NC(=O)CSc2nnc(CCNC(=O)c3cccs3)n2C)nc1-c1ccccc1 | active: 16.4 µM
CCN(CC(=O)NC(C)(C)C)C(=O)CCl | inactive
O=C(CN1CCN(S(=O)(=O)c2ccccc2F)CC1)NC1CCCC1 | inactive
CCOC(=O)C(=Cc1ccc(-c2ccsc2C(=O)OC)o1)C(=O)OCC | inconclusive: 14.1 µM [inhibitor, single point]
COc1ccc(OC)c(Cc2nnc(CCC(=O)NCc3nc4ccccc4s3)o2)c1 | inconclusive: 23.1 µM [activator, partial curve, poor fit]
CC1(C)CCc2cc(-c3ccn(S(=O)(=O)c4ccccc4Cl)n3)ccc2O1 | inconclusive: 6.51 µM [activator, full curve]
COc1ccc(Br)cc1-c1nc(CCl)cs1 | inactive
O=C(NCCCNC(=O)c1cc(Cl)ccc1Cl)c1cnccn1 | inconclusive: 6.51 µM [inhibitor, single point]
COc1ccc(-n2nc3cc(C)c(NC(C)=O)cc3n2)cc1 | inconclusive: 0.651 µM [activator, full curve]
CC(=O)c1cc2c(cc1NC(=O)c1cccc(S(=O)(=O)N3CCN(C)CC3)c1)OCO2 | inactive
Cc1cc(-c2nnc(CSc3nnc(NC(=O)c4ccc(C(C)(C)C)cc4)s3)o2)ccc1[N+](=O)[O-] | inconclusive: 8.2 µM [activator, partial curve]
CN(C)c1ccc(C(=O)Nc2nnc(-c3ccc(Cl)cc3)o2)cc1 | inconclusive: 18.4 µM [activator, single point]
C=CCc1ccccc1OCC(O)CN1CCN(c2ccccc2OC)CC1 (configuration not stated) | inconclusive: 23.1 µM [inhibitor, single point]
N#Cc1ccccc1OCC(=O)Nc1nnc(C2CC2)s1 | inconclusive: 20.6 µM [activator, partial curve, poor fit]
